Here are results for four molecules from article PMC5624289.

Protein sequences, listed by entry. Tags and fused reporters are not part of them.
UniProt Q7GBF7: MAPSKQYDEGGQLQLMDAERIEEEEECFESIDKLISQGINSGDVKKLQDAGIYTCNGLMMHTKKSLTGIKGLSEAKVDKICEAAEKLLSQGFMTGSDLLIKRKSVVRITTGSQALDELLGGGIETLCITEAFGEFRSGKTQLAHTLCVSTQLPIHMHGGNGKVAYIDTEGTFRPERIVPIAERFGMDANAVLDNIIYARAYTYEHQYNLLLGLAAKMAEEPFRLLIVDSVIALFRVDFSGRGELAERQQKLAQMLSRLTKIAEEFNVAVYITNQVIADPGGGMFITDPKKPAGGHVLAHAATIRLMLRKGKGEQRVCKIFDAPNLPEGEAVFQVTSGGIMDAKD

Where a chain is given by its changes, count along the chain named. No constants are given. Whether binding was seen depends on the method and setting. Binding calls can cover weak binding; strength is not graded here. For some of these results: Binding seen in cells or lysates may run through a third protein. For some of these results: Sequences can lack the tags named with a protein.

In experiment [1] the target is OsFIGNL1 (OsFidgetin-like 1), yeast two-hybrid bait (rice (Oryza sativa)). The experiment can be described thus: two-hybrid; OsFIGNL1 as bait (BD), partners as prey (AD); S. cerevisiae Y2HGold; test plates lacking Leu, Trp, His and Ade, 30°C, 4 days.
The target of experiment [2] is OsFIGNL1, BiFC fusion (pSPYCE-OsFIGNL1) (rice (Oryza sativa)). Kind of experiment: split reporter; BiFC: pSPYNE (YN) fusions of the partners with pSPYCE (YC)-OsFIGNL1, 35S promoter, Agrobacterium GV3101, Nicotiana benthamiana leaf cells; signal in the nucleus.

B1: DMC1A, yeast two-hybrid prey (protein, UniProt Q7GBF8 1-344)
chain: MAPSKQYSEGGQLQLMDAERIEEEEECFESIDKLISQGINSGDVKKLQDAGIYTCNGLMMHTKKSLTGIKGLSEAKVDKICEAAEKLLSQGFITGSDLLIKRKSVVRITTGSQALDKLLGGGIETLCITEAFGEFRSGKTQLAHTLCVSAQLPIHMHGGNGKVAYIDTEGTFRPERIVPIAERFGMDANAVLDNIIYARAYTYEHQYNLLLGLAAKMAEEPFRLLIVDSVIALFRVDFSGRGELAERQQKLAQMLSRLTKIAEEFNVAVYITNQVIADPGGGMFITDLKKPAGGHVLAHAATIRLMLRKGKGEQRVCKIFDAPNLPEGEAVFQVTSGGIMDAKD
In the case of B1, in experiment [1], the binding result is “binds”.

B2: DMC1B, BiFC fusion (pSPYNE-DMC1B) (protein, UniProt Q7GBF7 1-344)
chain: B1 chain with S8D, I93M, K117E, A150T, L288P
As to B2, the binding entry in experiment [2] is “binds”.

B3: DMC1A, BiFC fusion (pSPYNE-DMC1A) (protein, UniProt Q7GBF8 1-344)
chain: B1 chain
Consider B3, for which the binding result in experiment [2] is “binds”.

B4: DMC1B, yeast two-hybrid prey (protein, UniProt Q7GBF7 1-344)
chain: B1 chain with S8D, I93M, K117E, A150T, L288P
As for B4, the binding entry in experiment [1] was “binds”.
